The numbers were not newly measured in US20240142382A1, “METHODS AND COMPOSITIONS FOR CALIBRATED LABEL-FREE SURFACE-ENHANCED RAMAN SPECTROSCOPY” (Virginia Tech Intellectual Properties, Inc., priority 2021, published 2024), which cites them from elsewhere.

The test system of this data set is MDA-MB-231. As to conditions: MDA-MB-231 triple-negative breast cancer cells; read-out: half-maximal inhibition concentration (IC50); cited from earlier work.

Regarding `CC(=O)O[C@H]1C(=O)[C@@]2(C)[C@H]([C@H](OC(=O)c3ccccc3)[C@]3(O)C[C@H](OC(=O)[C@H](O)[C@@H](NC(=O)c4ccccc4)c4ccccc4)C(C)=C1C3(C)C)[C@]1(OC(C)=O)CO[C@@H]1C[C@@H]2O` [PTX, paclitaxel], the IC50 was 15 nM.
